# Taken from: PubChem BioAssay AID1259254 (NCATS, 2017)
# Screen: 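Gene knock-downs that lead to re-replication, shown by excess G2 DNA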 (primary screen)
# Cells: human HCT116 colorectal cancer cells
# Reagents: single siRNA against human genes
# Duration: 3 days
# Detection: 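Nuclei stained with Hoechst and imaged; cell-cycle phase assigned by DNA content; G2 share scaled per plate, non-targeting siRNA 0%, GMNN siRNA 100%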
# Direction: G2 robust z-score and G2 cells, % of GMNN control: higher = more G2 cells, more excess DNA replication
# Rule for the call: 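An siRNA counts as active if its G2 robust z-score lies at least 5 MADs above the screen median; here such calls match roughly 38% of GMNN control or more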
# The deposit covers about 59,000 reagents; below is an unselected part. In the full data, about 1,550 (2.6%) got an active call. 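G2 share is only a proxy for re-replication; each gene was hit by three separate siRNAs, and active genes were retested.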 A number with no mark means an inactive call. The numbers tell different reagents against one gene apart. Further read-outs or replicates are left out here. Not stated in the record: the amount of reagent.
target,reagent no.,G2 robust z-score,"G2 cells, % of GMNN control"
IPPK,1,4.12,32
IPPK,2,0.716,8.01
IPPK,3,-0.311,0.777
DNAL4,1,-0.256,1.16
DNAL4,2,7.13 (active),53.1
DNAL4,3,2.12,17.9
GON7,1,0.787,8.51
GON7,2,-0.642,-1.55
GON7,3,1.29,12
HTATIP2,1,2.39,19.7
HTATIP2,2,1.23,11.6
HTATIP2,3,-0.108,2.21
DAND5,1,1.61,14.3
DAND5,2,-0.728,-2.16
DAND5,3,1.58,14.1
FDCSP,1,-0.159,1.85
FDCSP,2,-1.07,-4.55
FDCSP,3,-0.338,0.59
PRRT1B,1,3.86,30.1
PRRT1B,2,-0.251,1.2
PRRT1B,3,-0.928,-3.56
OVOS1P,1,1.42,13
OVOS1P,2,-0.559,-0.965
OVOS1P,3,0.306,5.12
MBTPS1,1,-0.00161,2.96
MBTPS1,2,0.108,3.73
MBTPS1,3,-0.0758,2.43
EPX,1,6.55 (active),49.1
EPX,2,4.85,37.1
EPX,3,-0.255,1.17
ZNF554,1,-0.212,1.47
ZNF554,2,0.609,7.25
ZNF554,3,0.314,5.18
SKIDA1,1,-0.56,-0.975
SKIDA1,2,2.6,21.2
SKIDA1,3,-0.555,-0.941
TBC1D32,1,-0.519,-0.687
TBC1D32,2,-1.12,-4.91
TBC1D32,3,-0.542,-0.849
PLA2G4F,1,0.119,3.81
PLA2G4F,2,0.031,3.19
PLA2G4F,3,-0.721,-2.1
U2AF1,1,0.178,4.22
U2AF1,2,-0.88,-3.22
U2AF1,3,0.317,5.2
RIMS2,1,-0.494,-0.505
RIMS2,2,-0.0784,2.42
RIMS2,3,2.51,20.6
ATOH8,1,2.63,21.5
ATOH8,2,1.51,13.6
ATOH8,3,1.75,15.3
RECK,1,-0.664,-1.7
RECK,2,-0.728,-2.15
RECK,3,-0.677,-1.8
CAMK2A,1,1.57,14
CAMK2A,2,-0.738,-2.22
CAMK2A,3,-0.442,-0.14
GATA2,1,1.64,14.5
GATA2,2,-0.172,1.76
GATA2,3,1.09,10.7
ATP11A,1,0.568,6.97
ATP11A,2,-1.42,-6.99
ATP11A,3,-0.58,-1.11
ZNF446,1,4.25,32.9
ZNF446,2,0.392,5.72
ZNF446,3,0.198,4.36
RIN2,1,-0.247,1.23
RIN2,2,-0.107,2.22
RIN2,3,6.93 (active),51.7

5 of these entries in another layout.
OVOS1P #1
- G2 robust z-score: 1.42
- G2 cells, % of GMNN control: 13

OVOS1P #2
- G2 robust z-score: -0.559
- G2 cells, % of GMNN control: -0.965

OVOS1P #3
- G2 robust z-score: 0.306
- G2 cells, % of GMNN control: 5.12

MBTPS1 #1
- G2 robust z-score: -0.00161
- G2 cells, % of GMNN control: 2.96

MBTPS1 #2
- G2 robust z-score: 0.108
- G2 cells, % of GMNN control: 3.73
